In paper PMC10206301 one finds binding data, which are given here for six molecules.

Sequences of proteins named here, by UniProt entry; tags and fusion partners are left off. A change or cut given only in a name is not applied to a line headed by its entry. Residues count along the entry.
UniProt Q9Z1R2: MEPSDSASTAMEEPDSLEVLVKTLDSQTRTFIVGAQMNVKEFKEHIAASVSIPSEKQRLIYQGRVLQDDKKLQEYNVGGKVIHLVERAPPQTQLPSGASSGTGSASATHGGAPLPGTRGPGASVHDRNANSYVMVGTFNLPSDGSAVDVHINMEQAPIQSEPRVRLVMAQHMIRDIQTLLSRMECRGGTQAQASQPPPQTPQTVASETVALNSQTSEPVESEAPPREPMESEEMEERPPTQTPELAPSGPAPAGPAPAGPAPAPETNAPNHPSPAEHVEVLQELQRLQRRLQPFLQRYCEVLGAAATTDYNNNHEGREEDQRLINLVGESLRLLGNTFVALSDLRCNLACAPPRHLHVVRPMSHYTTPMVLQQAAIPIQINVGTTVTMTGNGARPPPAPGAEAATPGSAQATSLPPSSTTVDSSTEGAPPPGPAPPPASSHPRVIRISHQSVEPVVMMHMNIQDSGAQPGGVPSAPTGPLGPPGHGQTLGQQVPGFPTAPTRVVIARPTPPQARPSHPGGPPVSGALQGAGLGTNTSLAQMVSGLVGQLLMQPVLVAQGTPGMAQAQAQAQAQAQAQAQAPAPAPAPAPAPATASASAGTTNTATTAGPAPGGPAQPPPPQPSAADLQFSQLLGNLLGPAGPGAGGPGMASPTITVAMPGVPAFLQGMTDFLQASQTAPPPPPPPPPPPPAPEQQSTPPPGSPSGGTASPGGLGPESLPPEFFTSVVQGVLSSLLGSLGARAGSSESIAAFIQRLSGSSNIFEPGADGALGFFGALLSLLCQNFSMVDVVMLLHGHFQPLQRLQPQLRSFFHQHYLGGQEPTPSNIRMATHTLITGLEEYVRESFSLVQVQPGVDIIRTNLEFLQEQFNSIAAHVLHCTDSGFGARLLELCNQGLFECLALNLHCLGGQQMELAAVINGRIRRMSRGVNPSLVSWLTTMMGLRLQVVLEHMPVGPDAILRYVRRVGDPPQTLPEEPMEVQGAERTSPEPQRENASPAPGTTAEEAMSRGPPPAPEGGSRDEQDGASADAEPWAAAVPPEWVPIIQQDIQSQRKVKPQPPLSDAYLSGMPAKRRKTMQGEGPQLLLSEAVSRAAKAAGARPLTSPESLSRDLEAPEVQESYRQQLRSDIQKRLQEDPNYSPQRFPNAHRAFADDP
UniProt O54965, residues 35-381: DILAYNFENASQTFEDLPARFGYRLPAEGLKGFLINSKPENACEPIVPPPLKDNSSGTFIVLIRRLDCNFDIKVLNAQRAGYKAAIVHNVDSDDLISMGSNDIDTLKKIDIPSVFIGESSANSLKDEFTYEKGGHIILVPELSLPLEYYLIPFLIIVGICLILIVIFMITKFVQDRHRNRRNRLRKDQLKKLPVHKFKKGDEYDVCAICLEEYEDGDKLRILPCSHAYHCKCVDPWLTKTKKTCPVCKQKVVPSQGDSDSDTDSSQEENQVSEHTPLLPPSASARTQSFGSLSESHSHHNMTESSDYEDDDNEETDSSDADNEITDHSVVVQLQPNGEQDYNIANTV
UniProt P99026: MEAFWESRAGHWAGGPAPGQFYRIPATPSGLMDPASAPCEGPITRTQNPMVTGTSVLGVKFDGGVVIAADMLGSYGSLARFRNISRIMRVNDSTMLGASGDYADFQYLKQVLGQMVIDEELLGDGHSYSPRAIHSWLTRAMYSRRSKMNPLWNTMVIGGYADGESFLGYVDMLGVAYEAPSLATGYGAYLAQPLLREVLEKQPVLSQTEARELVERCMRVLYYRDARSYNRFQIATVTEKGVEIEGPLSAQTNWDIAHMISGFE
UniProt P43404: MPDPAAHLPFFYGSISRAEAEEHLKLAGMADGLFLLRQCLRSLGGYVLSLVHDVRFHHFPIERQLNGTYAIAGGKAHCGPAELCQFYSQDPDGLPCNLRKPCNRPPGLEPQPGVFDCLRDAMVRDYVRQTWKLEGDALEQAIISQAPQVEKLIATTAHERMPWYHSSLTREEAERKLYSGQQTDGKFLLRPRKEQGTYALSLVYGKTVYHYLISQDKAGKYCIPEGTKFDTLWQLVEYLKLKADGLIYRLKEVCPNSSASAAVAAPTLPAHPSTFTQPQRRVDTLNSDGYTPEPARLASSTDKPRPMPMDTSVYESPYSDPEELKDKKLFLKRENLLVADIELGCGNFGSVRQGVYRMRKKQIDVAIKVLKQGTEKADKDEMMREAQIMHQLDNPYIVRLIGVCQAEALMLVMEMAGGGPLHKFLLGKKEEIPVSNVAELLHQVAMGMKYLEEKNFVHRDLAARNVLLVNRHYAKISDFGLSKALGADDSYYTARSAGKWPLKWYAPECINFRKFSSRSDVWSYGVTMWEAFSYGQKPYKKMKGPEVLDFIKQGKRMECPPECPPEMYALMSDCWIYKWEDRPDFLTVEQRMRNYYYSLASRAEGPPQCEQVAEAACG

Test [1] addresses T1, His-tagged hCCDC134 (recombinant eukaryotic human coiled-coil domain containing 134) (human) (UniProt Q9H6E4).
T1 sequence: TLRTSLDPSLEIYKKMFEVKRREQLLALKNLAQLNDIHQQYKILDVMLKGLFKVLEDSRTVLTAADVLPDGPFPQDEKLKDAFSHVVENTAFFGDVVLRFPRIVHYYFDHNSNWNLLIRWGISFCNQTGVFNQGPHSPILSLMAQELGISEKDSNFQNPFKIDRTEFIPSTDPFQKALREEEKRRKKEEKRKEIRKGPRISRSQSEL
Nature of the test: affinity purification with mass spectrometry; 5 mg precleared lysate of mouse splenic cells (stimulated with anti-CD3 and anti-CD28 for 24 h) incubated with purified His-tagged mCCDC134, hCCDC134 or control protein (His-tagged human Igκ) at 4°C for 2 h, captured on anti-His magnetic beads; washed six times in 50 mM Tris-HCl pH 7.5, 150 mM NaCl, 0.5% NP-40, 1 mM EDTA; gel regions analysed by LC-MS/MS; proteins also found in the control regarded as nonspecific; only the target purified.

The target of test [2] is T2, His-tagged mCCDC134 (recombinant eukaryotic mouse coiled-coil domain containing 134) (mouse) (UniProt Q8C7V8).
T2 sequence: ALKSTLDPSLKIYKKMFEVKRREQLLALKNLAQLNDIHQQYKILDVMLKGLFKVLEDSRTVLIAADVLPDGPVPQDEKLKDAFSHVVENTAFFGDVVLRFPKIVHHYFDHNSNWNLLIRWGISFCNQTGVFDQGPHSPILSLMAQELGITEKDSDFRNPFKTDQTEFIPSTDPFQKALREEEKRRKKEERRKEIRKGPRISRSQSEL
The description is as above.

No constants are given. Whether binding was seen depends on the method and setting. Binding seen in cells or lysates may run through a third protein. These calls come from enrichment with a bait or labelling near it, and not all partners need be listed. Where a sequence is shown, tags or fusion partners need not be part of it.

“BCL2-associated athanogene 6 (Bag6) (from UniProt Q9Z1R2 1-1154)”: the binding result in test [1] and in test [2] was “binds” throughout.

With “E3 ubiquitin-protein ligase (RNF13) (from UniProt O54965 35-381)”, the binding entry in test [1] and in test [2] was “binds” throughout.

As for “proteasome subunit beta type-4 (Psmb4) (from UniProt P99026)”, the binding entry in test [1] and in test [2] was “binds” in each case.

Consider “60S ribosomal protein L14 (from UniProt Q9CR57 1-217)”, for which the binding result in test [1] and in test [2] was “binds” each time.

As to “Zap70 (endogenous, mouse splenic cell lysate) (from UniProt P43404 1-618)”, the binding entry in test [1] and in test [2] was “binds” each time.

B1: Perforin-1 (Prf1) (protein, UniProt P10820 21-554)
chain: PCYTATRSECKQKHKFVPGVWMAGEGMDVTTLRRSGSFPVNTQRFLRPDRTCTLCKNSLMRDATQRLPVAITHWRPHSSHCQRNVAAAKVHSTEGVAREAAANINNDWRVGLDVNPRPEANMRASVAGSHSKVANFAAEKTYQDQYNFNSDTVECRMYSFRLVQKPPLHLDFKKALRALPRNFNSSTEHAYHRLISSYGTHFITAVDLGGRISVLTALRTCQLTLNGLTADEVGDCLNVEAQVSIGAQASVSSEYKACEEKKKQHKMATSFHQTYRERHVEVLGGPLDSTHDLLFGNQATPEQFSTWTASLPSNPGLVDYSLEPLHTLLEEQNPKREALRQAISHYIMSRARWQNCSRPCRSGQHKSSHDSCQCECQDSKVTNQDCCPRQRGLAHLVVSNFRAEHLWGDYTTATDAYLKVFFGGQEFRTGVVWNNNNPRWTDKMDFENVLLSTGGPLRVQVWDADYGWDDDLLGSCDRSPHSGFHEVTCELNHGRVKFSYHAKCLPHLTGGTCLEYAPQGLLGDPPGNRSGAVW
For B1, the binding result in test [1] and in test [2] was “binds” throughout.
